{
  "source": "patent US9625448B2",
  "about": "“Double caged GABA compounds, bis-CNB-GABA” (The Trustees of Princeton University, priority 2014, dated 2017)",
  "key": {"[1]": {"system": "GABAA receptors", "details": "10 mM; cited from earlier work"}, "[2]": {"molecular_target": "GABAA receptors", "test": "Miniature GABA synaptic currents in molecular layer interneurons (Trigo et al., 2009)", "assay_type": "cell-based", "details": "Table 1, calculated from data of Trigo et al", "method": "FIG. 26 illustrates whole-cell patch clamp recordings from dentate granule cells of rat hippocampal slices reported by Molnár & Nadler, 2000. […] Holding potential of −80 mV. (Molnár & Nadler, 2000 European Journal of Pharmacology, 391, 255-262, which is incorporated herein by reference as if fully set forth, which is incorporated herein by reference as if fully set forth). […] FIG. 27 illustrates summary of the amplitudes of the current evoked by puff of 100 μM GABA and caged compounds around the soma reported by Matsuzaki et al., 2010. The amplitude was normalized to the mean current that was induced by GABA application alone. Left panel illustrates control (n=7); +10 mM CNI-GABA (n=7). Central panel illustrates control (n=10); +0.4 mM CDNI-GABA (n=10), +1.35 mM CDNI-GABA (n=14); +10 mM CDNI-GABA (n=10). Right panel illustrates control (n=9); +1 mM MNI-Glu (n=4); +10 mM MNI-Glu (n=9). ** p<0.0001, * p<0.01 (Matsuzaki et al., 2010 Nature Chemical Biology, 6, 255-257, which is incorporated herein by reference as if fully set forth). […] Though this is a much higher concentration compared to the IC50 for CNB-GABA, CDNI requires a higher concentration when photolyzed in vitro because of its two-photon sensitivity. Because 10 mM is the concentration used for two-photon uncaging, this antagonism is still practically limiting. […]"}},
  "note": "At least one structure is not confirmed: it was looked up by name or label, or the drawing left a doubt. Some entries share one result that the patent states for a list of compounds.",
  "data": [
    {"smiles": "NCCCC(=O)N1CCc2c(OCC(=O)O)ccc([N+](=O)[O-])c21", "note": "[CNI-GABA]", "values": [
      {"measurement": "reduction in response", "setting": "[1]", "value": "> 80", "unit": "%"}
    ]},
    {"smiles": "NCCCC(=O)N1CCc2c(OC(COP(=O)(O)O)COP(=O)(O)O)ccc([N+](=O)[O-])c21", "note": "[DPNI-GABA]", "values": [
      {"measurement": "IC50", "setting": "[2]", "value": 400, "unit": "µM"}
    ]}
  ]
}
